In all, about 33,000 sequences were measured (“E-score (-0.5 to 0.5)”: median about -0.016, highest 2% from about 0.3 on). This is one part of the list.
molecular target: T1, Yer184c (UniProt P39961); experiment: PBM E-score (8-mer binding enrichment) (E-score (-0.5 to 0.5)); higher = stronger / more preferred TF binding; settings: protein concentration: 100 nM; construct: GST-full length
T1 sequence: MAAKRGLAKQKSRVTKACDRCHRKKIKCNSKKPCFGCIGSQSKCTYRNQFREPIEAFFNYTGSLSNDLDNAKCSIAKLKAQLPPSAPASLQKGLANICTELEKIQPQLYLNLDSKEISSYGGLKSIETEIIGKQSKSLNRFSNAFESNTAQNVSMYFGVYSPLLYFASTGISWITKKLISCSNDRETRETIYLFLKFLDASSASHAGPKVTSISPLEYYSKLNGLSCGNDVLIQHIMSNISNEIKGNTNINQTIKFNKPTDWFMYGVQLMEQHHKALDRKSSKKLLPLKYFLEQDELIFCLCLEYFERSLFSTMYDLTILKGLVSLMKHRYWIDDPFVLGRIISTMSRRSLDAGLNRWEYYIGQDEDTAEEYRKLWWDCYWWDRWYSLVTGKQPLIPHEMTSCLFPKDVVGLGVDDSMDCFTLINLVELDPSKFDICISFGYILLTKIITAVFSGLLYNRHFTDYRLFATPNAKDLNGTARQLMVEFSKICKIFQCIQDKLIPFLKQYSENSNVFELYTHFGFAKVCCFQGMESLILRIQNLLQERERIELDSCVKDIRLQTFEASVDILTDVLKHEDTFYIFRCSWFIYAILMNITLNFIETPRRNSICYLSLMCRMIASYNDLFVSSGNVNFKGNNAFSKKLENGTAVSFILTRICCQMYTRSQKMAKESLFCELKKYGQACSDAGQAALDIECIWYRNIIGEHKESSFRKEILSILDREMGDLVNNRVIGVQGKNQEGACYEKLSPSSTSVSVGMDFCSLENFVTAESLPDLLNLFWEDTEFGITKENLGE
Experimental: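 Universal 'all 10-mer' protein binding microarrays (Agilent AMADID 015681) probed with GST-tagged S. cerevisiae TFs (full-length or DBD) made by in vitro transcription/translation (PURExpress), about 100-200 nM. Bound TF was detected with fluorescent anti-GST. Each ungapped 8-mer (which stands for itself and its reverse complement) is scored by the PBM enrichment score (E-score), a modified Wilcoxon-Mann-Whitney statistic from -0.5 to +0.5, computed with the Universal PBM Analysis Suite. Scale: above 0.35 generally sequence-specific binding.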

Sequence	PBM E-score
AGAAGATG	0.139
ATCGCGGA	-0.00991
AGCCTTTA	0.031
GTGCGAAC	-0.151
CTACAGTC	-0.13
AAGGGGAG	-0.258
CGGGTAGA	0.0241
CATCACCA	-0.206
ATTTGCGA	0.13
CCTCCACG	-0.15
CTGCAGTA	-0.142
ACCTTTTC	-0.076
TCTAAAAA	0.21
GTTTGACA	0.0632
TGAAAGAA	0.25
CCCGCCGC	0.134
GATATTTA	0.171
CGTCAACC	-0.137
TAGTTGCA	-0.0237
CAGGGAGG	-0.358
CCACGACA	-0.117
ACGCTGGA	-0.0411
CTGTTATC	-0.0267
ACCTCATG	-0.17
GCCGCAGC	0.00866

Sequence	PBM E-score
GGAGAATA	0.178
CAGAAGCG	0.0323
CGTGCGGC	0.0714
GCGGGTGA	0.0452
GTTTTAAA	0.131
GTGTCCAA	0.115
GTAATTAC	0.13
ACCGTAGC	-0.126
CCGGCGCG	0.305
TATGTAAA	0.202
ATCATCAG	0.0187
AGTATCAA	0.205
CGGTTGGA	-0.0321
AACAAGCA	0.0773
CCGCTTCG	-0.106
ATTGCAGG	0.0249
TTTACAAA	0.0727
ATTGAAAT	0.24
AGATGGTG	-0.16
CCACTACG	0.165
GGTGGGCA	-0.188
AAACGTCA	-0.173
ATTCGGTC	0.244
GAGACAGA	-0.0698
CAACGCGA	0.0604

In a second layout: results already given
Sequence | PBM E-score
ATCGCGGA | -0.00991
AAGGGGAG | -0.258
GTTTGACA | 0.0632
ATCATCAG | 0.0187
GGTGGGCA | -0.188

The list goes on.

Sequence	PBM E-score
ACGGACGC	-0.0536
GAACGAGA	-0.103
GTTGGCCA	-0.253
ACCGCGCA	-0.128
ACGACAAC	0.171
AGCGCTTA	0.0118
ATGTGAAC	-0.0834
TAAATTAA	0.191
ATTGCACC	-0.189
CCTTGATA	0.0337
ATATTAAT	0.283
ATCTAGCA	-0.152
GGCGCTTA	-0.151
ATATCTGC	-0.0205
ACGTCCCT	-0.168
ACGATAAA	0.0839
AAAGTAGG	-0.00788
AGAGGCTG	-0.385
GTTGACTA	-0.0838
GCCTTGGA	-0.074
AACTCTCT	-0.0235
ACATGTAA	0.173
ACTGCCCG	-0.0748
CTCAAACA	0.173
TAGGCCCA	-0.249

Sequence	PBM E-score
AACGCTTC	-0.0575
AACCACCA	-0.226
ACCGCGGG	0.291
CTAAAGAA	0.112
AGCCGCAT	0.0929
CTCTAGAC	-0.163
ACATACTA	0.184
ATGAAAAG	-0.151
CACCATTA	0.0324
ACTGCTTA	-0.0882
CATCTCGG	0.272
ATATGACG	0.128
AAATCGTC	-0.0506
ACCACAGA	-0.0365
AGAGCCAG	-0.327
AGCCCCGC	-0.183
GATGCCCC	-0.361
AAGTGGCA	-0.127
GATTAGCA	0.014
CTGCCTCA	-0.295
TCGCAACA	-0.0709
ATTGACCA	-0.178
CGCTAATA	0.108
GTTAAACA	0.205
GCAATGGA	-0.0333

Sequence	PBM E-score
ACTACCGG	0.00787
AAACAAGT	0.0344
CTGGGGCC	-0.262
ACCACATC	-0.0834
AACTTTGG	-0.0277
ATGTTGAG	-0.0804
GCAATTCC	0.076
CCAAATCG	-0.0539
CCTCAGAC	-0.1
ACAATACC	0.0469
GGGGTACA	-0.111
AACAGGTG	-0.205
GCACCCCC	-0.185
ACCGTGAT	0.0247
ACCTGACG	-0.246
ACCGGGTG	0.153
GGGGAACC	-0.224
TGGTCACA	0.0668
CTGACCAA	0.12
AGCAACCT	-0.172
AGCAGTAC	-0.142
ACCACGTC	-0.33
CTCTCGTA	-0.204
ACTAGCGA	-0.0311
AAACGGCA	0.153

Sequence	PBM E-score
ATACATCA	0.00369
GTCTTCAA	-0.0912
CCTTCAGC	-0.152
CAGACATA	-0.0208
CCGCGGAG	0.333
GATCACGA	-0.145
CGCGTAGC	-0.0173
CCCTACGG	-0.139
GACACTAC	0.114
CTAGAATA	0.118
ATACTCGC	0.0477
GGGCTCAA	-0.0175
GGATCCAC	-0.119
GATGCCGC	0.106
CAGAGGTA	-0.0358
CGAGCTCG	0.308
GGCGTAGA	0.0821
CTAACACC	-0.111
AATTCGCA	0.171
ACAGCTCC	0.0429
GATGTTCC	0.239
TACAATCA	0.0495
AAATGTAG	-0.241
AAGAGATA	-0.12
ATTCGTAC	0.162

Sequence	PBM E-score
GAGCACTA	-0.0483
ATCGCAAA	0.107
AAGATGGA	0.0149
GCTGCCCA	-0.15
AGCGTTGG	-0.251
GCTAATCA	0.0116
GCGCTGGA	-0.00416
TATTGCCA	-0.0502
ATTCGCTC	0.056
CGAAGTCA	0.0999
ATTGAGTG	0.0206
GATCAGGC	-0.0463
AGTCTAGA	-0.0765
TCCAAGGA	0.0378
GATCGACA	-0.0135
CCATTTGA	-0.117
CGTGCTAA	0.0262
GTCGCAGA	0.0583
AATCTTGT	0.0931
ACCCTCCC	0.0834
TACTCCAA	-0.186
AACGAAGG	-0.353
CTTCAGTC	-0.144
TCTTCGCA	-0.0174
ACGTCAAC	-0.0414

Sequence	PBM E-score
GCAGAATA	0.0436
CAACTCAC	-0.0728
ACGAGCCC	-0.112
ATTCTATG	0.0987
AGGATATG	-0.172
ATACCGAA	0.322
TGAACAAA	0.223
ATACGGGC	0.0111
CAGTCTGG	-0.159
CTTTGCCC	-0.165
AGCGCGGA	0.0295
ACGCACTA	-0.0578
ATGTATGG	-0.118
CCCCTGAA	-0.111
ATCTATTA	0.136
AGACCCCC	-0.213
CATCCAAG	-0.0693
GCTAGTTA	0.0114
CCTTCAAG	-0.0749
AGCACGAT	-0.131
AAGGGTAG	-0.276
ACGATGCA	0.025
ATAGTAGA	-0.0627
ACTGTTGA	-0.0706
AGTATCTG	-0.0852

Sequence	PBM E-score
TATATGAA	0.2
GAGGTATA	-0.0667
ATGTTCAA	0.134
CGTGGTTA	-0.148
ACAATGCA	0.136
CAGGTTGG	-0.105
CCGCACGG	0.0506
CCGCCTTA	-0.153
CGAAAGCC	-0.0408
AAGTTCCT	0.0951
AGTACTAA	0.0533
AAGACACG	0.0503
AGTCCGTC	0.134
AGATTCCA	0.126
TCTGGCCA	-0.199
ATGGGGCG	-0.183
ATCGACGC	-0.0262
GCGATACC	-0.141
CCTTAGCA	-0.035
AGAACTGA	0.119
GGCCAGAC	0.0143
GGATTAAA	0.18
GCGGTTGA	0.113
ATTTAGTA	0.328
TATACGAA	0.157

Sequence	PBM E-score
GGCCAACC	-0.0334
ACACTCCT	-0.0406
AATGATAA	0.283
AATTCCAC	0.198
AAGTTCAT	0.155
AGGGAGTA	-0.2
CACGTTGC	-0.129
GGACCCCC	-0.249
GAGCGCGC	0.0371
AGGCGGCC	-0.00396
AGGTCGAC	-0.149
ACTTGCAC	-0.0693
AGACCACC	-0.127
AAACGTAT	0.0421
ACCGTAAA	0.0422
ACTGGCAA	-0.0748
AAATGTGG	-0.0232
GCGCAAAA	0.0977
CTTGGGCC	-0.186
AAATATGG	-0.132
ATCAAGGG	0.106
CAGGATTA	0.0532
GTATCAAC	0.00497
CGAGCACC	-0.0271
ACGACGAT	0.111

Sequence	PBM E-score
TACGCATA	-0.00972
CTTGTCGC	-0.0873
TATCGAAA	0.178
ACTGAGAT	-0.194
AACTAAAG	0.112
AGGGAACA	0.00359
GCGCCCGC	-0.15
GCGATCCC	-0.0563
TCAATTGA	0.144
CCAGCGCG	0.00494
CATCGGTC	-0.0107
GCAAGAAC	0.146
CATCTTCA	-0.195
CAGAGATG	-0.0692
CCTGACTC	-0.11
AGACCTTC	-0.185
GCCCATCA	-0.241
AACTGAAA	0.0988
CCCAAGAC	-0.0238
CTCTCGCA	-0.217
CCCTTGTA	-0.242
TAGGCACA	-0.165
GTGATTTA	0.193
TCCGGGAA	0.37
CAGAGATC	-0.0176

A different layout for part of the listing above:
Sequence | PBM E-score
GCGATCCC | -0.0563
GCAAGAAC | 0.146
CCTGACTC | -0.11
CCCAAGAC | -0.0238

In a second layout: results already given.
CTTGTCGC
  PBM E-score = -0.0873
GCGCCCGC
  PBM E-score = -0.15
GCAAGAAC
  PBM E-score = 0.146
CCCAAGAC
  PBM E-score = -0.0238

(list continues)

Sequence	PBM E-score
AATTTTTG	0.188
CCCTCACG	-0.193
AATCGTGG	0.0154
GCATGCCC	0.00887
GGGTTGAC	-0.222
AAAAGGAG	-0.0435
AGACGACG	-0.185
ATCCAGTA	-0.135
CAGAAATA	-0.0284
AACGGCAC	0.0856
CTCCGAAG	0.303
ATGCCCTC	-0.0705
GAGCTCGA	0.136
CTACAGAA	0.103
ATCATCGC	-0.154
CCTTTGTC	0.0403
CGGCCGGA	0.402
TCTAACCA	0.0158
CCTACAGC	-0.231
AAACATTA	0.093
CCGCTTAG	-0.216
CCCACAGG	-0.376
AAGTCAAA	0.117
TGAGGACA	-0.105
AAGCACGG	-0.0621

Sequence	PBM E-score
GCTCGCAC	0.0955
ACAGGCTA	-0.164
ACCGAGAT	0.202
TGATTAAA	0.252
ATTTTAAG	0.0152
AAGGGCGT	-0.169
AGGTAACG	0.00421
CATTTTCG	0.094
CACTCTCG	-0.126
CGCCCAAG	-0.249
TCGAATAA	-0.00128
CCAGACAC	-0.135
CTCGGTCC	0.181
CGGTTACA	0.242
CATTACCC	-0.111
CGTGATAG	-0.0395
CATCGCCC	-0.167
CTAAACTA	-0.0564
GCCCTGCA	-0.195
CGGCTGTA	0.147
CTCCTGAA	0.0396
AAGATACC	0.187
AACCGAAG	0.259
AGACGTAA	0.0391
GGATAGAA	0.197

Sequence	PBM E-score
CCTGCGAG	0.00158
GCTAGACA	0.113
AAGGGCGA	-0.211
AGGAGCTG	-0.235
TCCAGGGA	-0.242
ACAGGGCG	-0.0949
CACACTCC	-0.282
ATCCCGTG	0.155
AACATATC	0.0913
CGGGAGAC	0.0664
GCTCGGGA	0.156
GGCATGGA	0.0649
ATCCATTG	0.0741
AGCGCCAG	0.114
CTGAATGC	-0.13
ACTCAGGC	-0.0239
CCTGTCAA	-0.11
AGCACCCT	-0.24
GTTATGTA	-0.00775

Source: the supplement of paper PMC3334620
